Record: PubChem BioAssay AID1259308 (NCATS, 2017)

- Purpose: 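Candidate targets for better recombinant protein yield in mammalian cells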 (primary screen)
- Cells: human HEK293 embryonic kidney cells stably expressing firefly luciferase (HEK-CMV-Luc2-Hygro)
- Reagent: single siRNA against human genes, 0.8 pmol siRNA per well
- Duration: 72 h
- Read-out: 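Reporter luminescence and viable-cell signal on separate replicate plates, given as percent of non-targeting control and median/MAD z-scores, plus per-cell luciferase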
- Direction: total luciferase, z-score and total luciferase, % of control: higher = more reporter protein produced; luciferase per cell, z-score: higher = more reporter output per viable cell; viable cells, % of control: higher = more viable cells
- Active means: 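Active when the median/MAD z-score for overall luciferase is greater than 3; a gene was taken forward for validation with new siRNAs if at least two of its three siRNAs passed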
- Calls: active = raised luciferase; inactive = no rise
Here is an unselected part of about 59,000 deposited reagents. Over the whole deposit, about 1,510 (2.6%) got an active call. 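Calls use total luciferase alone and ignore viability, so some active siRNAs may act by altering cell number.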 Unmarked entries are inactive. The numbers tell different reagents against one gene apart.

Gene | siRNA no. | total luciferase, z-score | total luciferase, % of control | luciferase per cell, z-score | viable cells, % of control
HNRNPK (GeneID 3190) | 1 | -0.318 | 75.6 | 0.412 | 75.7
HNRNPK (GeneID 3190) | 2 | 0.117 | 84.2 | 0.577 | 80.8
HNRNPK (GeneID 3190) | 3 | -0.137 | 79.2 | -0.109 | 91
SHISA5 (GeneID 51246) | 1 | 1.33 | 108 | 0.603 | 103
SHISA5 (GeneID 51246) | 2 | 0.038 | 82.6 | -0.321 | 100
SHISA5 (GeneID 51246) | 3 | 1.86 | 119 | 1.9 | 80.5
OMP (GeneID 4975) | 1 | 0.0851 | 83.6 | -0.00811 | 93.6
OMP (GeneID 4975) | 2 | 1.53 | 112 | 1.52 | 84.1
OMP (GeneID 4975) | 3 | -1.1 | 60 | -1.2 | 92.1
COMT (GeneID 1312) | 1 | 0.273 | 87.3 | -0.326 | 106
COMT (GeneID 1312) | 2 | 2.01 | 122 | 1.42 | 93.7
COMT (GeneID 1312) | 3 | 0.226 | 86.4 | -0.127 | 99.8
MIS18A (GeneID 54069) | 1 | -0.205 | 77.8 | -0.334 | 94.9
MIS18A (GeneID 54069) | 2 | -0.566 | 70.6 | 0.142 | 76
MIS18A (GeneID 54069) | 3 | -0.995 | 62.1 | -0.856 | 86.9
USP33 (GeneID 23032) | 1 | -0.188 | 78.2 | -0.433 | 97.9
USP33 (GeneID 23032) | 2 | -2.38 | 34.6 | -2.97 | 84.6
USP33 (GeneID 23032) | 3 | -1.8 | 46.2 | -2.24 | 93
FAF2 (GeneID 23197) | 1 | 0.611 | 94 | 0.0341 | 104
FAF2 (GeneID 23197) | 2 | 1.07 | 103 | 0.923 | 90.3
FAF2 (GeneID 23197) | 3 | 0.354 | 88.9 | -0.0923 | 102
FLJ13224 (GeneID 79857) | 1 | 0.424 | 90.3 | 0.514 | 88.2
FLJ13224 (GeneID 79857) | 2 | 0.753 | 96.9 | 0.806 | 87.5
FLJ13224 (GeneID 79857) | 3 | -0.885 | 64.3 | -0.964 | 92.6
CDK10 (GeneID 8558) | 1 | -0.298 | 76 | -0.0563 | 86.2
CDK10 (GeneID 8558) | 2 | 0.695 | 95.7 | 0.807 | 86.5
CDK10 (GeneID 8558) | 3 | 0.0219 | 82.3 | -0.0354 | 92.9
UBA52 (GeneID 7311) | 1 | -1.58 | 50.5 | 0.28 | 52.4
UBA52 (GeneID 7311) | 2 | -2.66 | 29 | -0.413 | 36.1
UBA52 (GeneID 7311) | 3 | -1.44 | 53.3 | -1.74 | 94.3
BEGAIN (GeneID 57596) | 1 | 3.44 (active) | 150 | 3.09 | 74.3
BEGAIN (GeneID 57596) | 2 | -0.631 | 69.3 | -0.824 | 96.2
BEGAIN (GeneID 57596) | 3 | -1.45 | 53 | -1.42 | 86.1
KCNAB3 (GeneID 9196) | 1 | 0.65 | 94.8 | 0.0465 | 105
KCNAB3 (GeneID 9196) | 2 | -2.36 | 34.9 | -2.99 | 85.7
KCNAB3 (GeneID 9196) | 3 | 0.876 | 99.3 | 0.801 | 89.9
SF3B3 (GeneID 23450) | 1 | 2.41 | 130 | 4.3 | 46.8
SF3B3 (GeneID 23450) | 2 | 3.24 (active) | 146 | 3.64 | 62.7
SF3B3 (GeneID 23450) | 3 | 3.31 (active) | 148 | 4.6 | 49.1
RPS4Y1 (GeneID 6192) | 1 | -2.61 | 30 | -2.55 | 65.6
RPS4Y1 (GeneID 6192) | 2 | 1.01 | 102 | 0.791 | 92.6
RPS4Y1 (GeneID 6192) | 3 | 4.43 (active) | 170 | 2.56 | 96.9
BCLAF1P1 (GeneID 728366) | 1 | 0.192 | 85.7 | -0.0859 | 98
BCLAF1P1 (GeneID 728366) | 2 | 0.435 | 90.5 | 0.991 | 77.9
BCLAF1P1 (GeneID 728366) | 3 | 2.36 | 129 | 2.01 | 84.9
PNO1 (GeneID 56902) | 1 | -0.511 | 71.7 | -0.722 | 96.9
PNO1 (GeneID 56902) | 2 | 0.927 | 100 | 0.425 | 100
PNO1 (GeneID 56902) | 3 | -1.89 | 44.3 | -1.84 | 80.5
EIF2S1 (GeneID 1965) | 1 | -1.96 | 42.9 | -1.05 | 63.2
EIF2S1 (GeneID 1965) | 2 | -2.55 | 31.1 | -2.85 | 73.7
EIF2S1 (GeneID 1965) | 3 | -3.04 | 21.4 | -3.61 | 62
MARCHF3 (GeneID 115123) | 1 | 6.09 (active) | 203 | 3.74 | 84.7
MARCHF3 (GeneID 115123) | 2 | -1.22 | 57.5 | -0.497 | 73.3
MARCHF3 (GeneID 115123) | 3 | 2.23 | 126 | 1.14 | 105
C1orf53 (GeneID 388722) | 1 | 1.04 | 102 | 0.436 | 102
C1orf53 (GeneID 388722) | 2 | 0.26 | 87.1 | -0.352 | 107
C1orf53 (GeneID 388722) | 3 | 0.659 | 95 | 0.758 | 87
